Source: the M2OR odorant receptor database
The entries are a selection whose mix differs from that of the whole data set. Calls are pooled over several reports, among them a noisy single-well screen.

Legend:
Conditions in all cases: stereoisomer not certain
[1] = target: T1, OR10T2 (Homo sapiens) (UniProt Q8NGX3)
T1 sequence (whole entry): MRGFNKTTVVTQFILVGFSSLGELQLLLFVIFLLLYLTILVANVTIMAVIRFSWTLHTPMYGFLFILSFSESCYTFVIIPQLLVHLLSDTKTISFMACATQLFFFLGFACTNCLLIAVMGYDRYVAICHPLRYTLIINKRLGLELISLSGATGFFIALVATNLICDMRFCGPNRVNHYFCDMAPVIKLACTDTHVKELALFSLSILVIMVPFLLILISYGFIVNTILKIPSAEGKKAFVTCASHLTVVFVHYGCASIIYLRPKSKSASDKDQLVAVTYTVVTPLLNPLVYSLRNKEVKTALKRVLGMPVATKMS
How it was run: (§1)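 Whether a receptor–molecule pair is responsive (active) rests on the original authors' judgment that its measured signal was statistically different from baseline. Pairs without that judgment are non-responsive (inactive). Sources used varied assay methods, commonly transient luciferase assays in mammalian cell lines.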

[2] = target: T2, OR10X1 (Homo sapiens) (UniProt Q8NGY0)
T2 sequence (whole entry): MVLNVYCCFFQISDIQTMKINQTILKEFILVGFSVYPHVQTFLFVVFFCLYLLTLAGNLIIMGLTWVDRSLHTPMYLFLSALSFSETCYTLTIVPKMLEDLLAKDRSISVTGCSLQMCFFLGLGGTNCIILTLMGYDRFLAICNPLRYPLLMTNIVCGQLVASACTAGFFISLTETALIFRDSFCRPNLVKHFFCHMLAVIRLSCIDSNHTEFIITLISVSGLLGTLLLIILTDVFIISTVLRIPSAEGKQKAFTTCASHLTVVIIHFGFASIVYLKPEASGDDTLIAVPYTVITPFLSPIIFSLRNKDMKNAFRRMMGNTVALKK
How it was run: as §1

[3] = target: T3, OR10Z1 (Homo sapiens) (UniProt Q8NGY1)
T3 sequence (whole entry): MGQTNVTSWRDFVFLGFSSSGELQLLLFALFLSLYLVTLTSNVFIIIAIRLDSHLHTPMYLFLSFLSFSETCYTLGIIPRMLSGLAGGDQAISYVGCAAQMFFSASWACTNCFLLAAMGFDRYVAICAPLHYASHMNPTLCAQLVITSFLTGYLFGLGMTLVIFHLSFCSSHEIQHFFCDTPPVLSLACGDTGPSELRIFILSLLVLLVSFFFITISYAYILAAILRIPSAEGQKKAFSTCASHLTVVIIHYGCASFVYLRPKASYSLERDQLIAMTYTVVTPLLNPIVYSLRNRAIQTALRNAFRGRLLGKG
How it was run: as §1

[4] = target: T4, OR11A1 (Homo sapiens) (UniProt Q9GZK7)
T4 sequence (whole entry): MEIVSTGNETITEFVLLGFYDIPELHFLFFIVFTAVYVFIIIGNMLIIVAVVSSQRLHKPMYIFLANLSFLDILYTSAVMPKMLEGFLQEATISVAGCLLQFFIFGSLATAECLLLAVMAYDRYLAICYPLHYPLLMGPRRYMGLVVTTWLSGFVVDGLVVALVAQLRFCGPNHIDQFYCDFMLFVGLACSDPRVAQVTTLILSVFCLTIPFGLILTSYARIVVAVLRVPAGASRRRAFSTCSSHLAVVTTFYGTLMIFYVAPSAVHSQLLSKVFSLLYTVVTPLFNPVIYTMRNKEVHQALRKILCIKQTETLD
How it was run: as §1

[5] = target: T5, OR11H4 (Homo sapiens) (UniProt Q8NGC9)
T5 sequence (whole entry): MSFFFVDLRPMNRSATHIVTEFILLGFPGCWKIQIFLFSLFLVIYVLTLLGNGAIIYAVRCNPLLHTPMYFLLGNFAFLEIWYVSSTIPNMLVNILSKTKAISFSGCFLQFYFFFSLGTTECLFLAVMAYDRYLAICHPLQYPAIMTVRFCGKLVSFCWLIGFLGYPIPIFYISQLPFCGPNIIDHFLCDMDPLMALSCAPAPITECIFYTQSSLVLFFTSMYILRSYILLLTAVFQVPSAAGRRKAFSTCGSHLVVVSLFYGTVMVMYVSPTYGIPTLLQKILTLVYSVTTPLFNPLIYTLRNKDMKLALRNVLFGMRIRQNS
How it was run: as §1

[6] = target: T6, OR11H6 (Homo sapiens) (UniProt Q8NGC7)
T6 sequence (whole entry): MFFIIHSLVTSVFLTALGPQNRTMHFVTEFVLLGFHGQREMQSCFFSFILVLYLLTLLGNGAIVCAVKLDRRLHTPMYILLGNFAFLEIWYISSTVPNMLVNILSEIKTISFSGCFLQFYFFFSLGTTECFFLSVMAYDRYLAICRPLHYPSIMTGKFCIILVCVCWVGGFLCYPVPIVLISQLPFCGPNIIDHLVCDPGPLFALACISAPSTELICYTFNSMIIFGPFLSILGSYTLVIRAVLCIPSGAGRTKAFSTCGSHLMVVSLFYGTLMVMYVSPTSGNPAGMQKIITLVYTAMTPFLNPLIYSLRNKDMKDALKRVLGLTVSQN
How it was run: as §1

[7] = target: T7, OR12D2 (Homo sapiens) (UniProt P58182)
T7 sequence (whole entry): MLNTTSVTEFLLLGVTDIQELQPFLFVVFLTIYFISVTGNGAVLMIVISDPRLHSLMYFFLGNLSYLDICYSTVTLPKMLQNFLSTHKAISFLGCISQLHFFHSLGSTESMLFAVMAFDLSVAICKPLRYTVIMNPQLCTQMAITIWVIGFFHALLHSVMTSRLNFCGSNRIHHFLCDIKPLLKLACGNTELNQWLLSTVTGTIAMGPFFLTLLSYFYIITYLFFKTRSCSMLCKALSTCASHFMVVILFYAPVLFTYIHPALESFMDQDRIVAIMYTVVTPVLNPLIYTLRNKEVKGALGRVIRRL
How it was run: as §1

[8] = target: T8, OR12D3 (Homo sapiens) (UniProt Q9UGF7)
T8 sequence (whole entry): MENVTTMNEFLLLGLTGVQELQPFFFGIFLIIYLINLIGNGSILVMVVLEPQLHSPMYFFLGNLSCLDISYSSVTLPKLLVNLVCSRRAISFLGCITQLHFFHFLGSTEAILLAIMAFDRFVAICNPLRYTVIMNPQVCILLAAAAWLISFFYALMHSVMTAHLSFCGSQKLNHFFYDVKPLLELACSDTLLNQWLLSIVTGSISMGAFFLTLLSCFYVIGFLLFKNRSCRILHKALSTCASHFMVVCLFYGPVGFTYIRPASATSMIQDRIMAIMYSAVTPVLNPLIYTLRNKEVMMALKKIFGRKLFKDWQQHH
How it was run: as §1

[9] = target: T9, OR13A1 (Homo sapiens) (UniProt Q8NGR1)
T9 sequence (whole entry): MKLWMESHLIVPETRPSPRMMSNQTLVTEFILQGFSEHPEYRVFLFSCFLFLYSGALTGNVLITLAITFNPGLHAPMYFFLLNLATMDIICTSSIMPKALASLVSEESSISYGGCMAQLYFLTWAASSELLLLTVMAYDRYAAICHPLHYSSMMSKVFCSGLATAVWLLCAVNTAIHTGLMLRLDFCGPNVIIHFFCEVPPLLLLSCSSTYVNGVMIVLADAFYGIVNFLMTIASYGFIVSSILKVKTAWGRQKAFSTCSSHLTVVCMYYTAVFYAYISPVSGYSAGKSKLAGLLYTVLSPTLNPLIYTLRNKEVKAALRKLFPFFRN
How it was run: as §1

[10] = target: T10, OR13C2 (Homo sapiens) (UniProt Q8NGS9)
T10 sequence (whole entry): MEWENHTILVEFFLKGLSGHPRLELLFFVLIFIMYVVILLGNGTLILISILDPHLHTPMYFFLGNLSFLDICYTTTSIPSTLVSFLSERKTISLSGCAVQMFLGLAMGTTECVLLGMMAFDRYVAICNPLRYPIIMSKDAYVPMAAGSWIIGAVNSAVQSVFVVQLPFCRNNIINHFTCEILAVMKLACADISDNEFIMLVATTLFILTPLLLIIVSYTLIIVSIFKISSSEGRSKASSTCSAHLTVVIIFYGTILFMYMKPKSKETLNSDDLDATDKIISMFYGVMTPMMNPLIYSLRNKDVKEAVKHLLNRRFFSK
How it was run: as §1

Measured: odorant receptor agonist call;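 note: active if original authors judged signal statistically different from baseline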

CS
inactive: all assays above
